The record followed here is paper PMC11833509.

Chains of the proteins cited; added tags and fusions are not shown.
UniProt Q9W1B0: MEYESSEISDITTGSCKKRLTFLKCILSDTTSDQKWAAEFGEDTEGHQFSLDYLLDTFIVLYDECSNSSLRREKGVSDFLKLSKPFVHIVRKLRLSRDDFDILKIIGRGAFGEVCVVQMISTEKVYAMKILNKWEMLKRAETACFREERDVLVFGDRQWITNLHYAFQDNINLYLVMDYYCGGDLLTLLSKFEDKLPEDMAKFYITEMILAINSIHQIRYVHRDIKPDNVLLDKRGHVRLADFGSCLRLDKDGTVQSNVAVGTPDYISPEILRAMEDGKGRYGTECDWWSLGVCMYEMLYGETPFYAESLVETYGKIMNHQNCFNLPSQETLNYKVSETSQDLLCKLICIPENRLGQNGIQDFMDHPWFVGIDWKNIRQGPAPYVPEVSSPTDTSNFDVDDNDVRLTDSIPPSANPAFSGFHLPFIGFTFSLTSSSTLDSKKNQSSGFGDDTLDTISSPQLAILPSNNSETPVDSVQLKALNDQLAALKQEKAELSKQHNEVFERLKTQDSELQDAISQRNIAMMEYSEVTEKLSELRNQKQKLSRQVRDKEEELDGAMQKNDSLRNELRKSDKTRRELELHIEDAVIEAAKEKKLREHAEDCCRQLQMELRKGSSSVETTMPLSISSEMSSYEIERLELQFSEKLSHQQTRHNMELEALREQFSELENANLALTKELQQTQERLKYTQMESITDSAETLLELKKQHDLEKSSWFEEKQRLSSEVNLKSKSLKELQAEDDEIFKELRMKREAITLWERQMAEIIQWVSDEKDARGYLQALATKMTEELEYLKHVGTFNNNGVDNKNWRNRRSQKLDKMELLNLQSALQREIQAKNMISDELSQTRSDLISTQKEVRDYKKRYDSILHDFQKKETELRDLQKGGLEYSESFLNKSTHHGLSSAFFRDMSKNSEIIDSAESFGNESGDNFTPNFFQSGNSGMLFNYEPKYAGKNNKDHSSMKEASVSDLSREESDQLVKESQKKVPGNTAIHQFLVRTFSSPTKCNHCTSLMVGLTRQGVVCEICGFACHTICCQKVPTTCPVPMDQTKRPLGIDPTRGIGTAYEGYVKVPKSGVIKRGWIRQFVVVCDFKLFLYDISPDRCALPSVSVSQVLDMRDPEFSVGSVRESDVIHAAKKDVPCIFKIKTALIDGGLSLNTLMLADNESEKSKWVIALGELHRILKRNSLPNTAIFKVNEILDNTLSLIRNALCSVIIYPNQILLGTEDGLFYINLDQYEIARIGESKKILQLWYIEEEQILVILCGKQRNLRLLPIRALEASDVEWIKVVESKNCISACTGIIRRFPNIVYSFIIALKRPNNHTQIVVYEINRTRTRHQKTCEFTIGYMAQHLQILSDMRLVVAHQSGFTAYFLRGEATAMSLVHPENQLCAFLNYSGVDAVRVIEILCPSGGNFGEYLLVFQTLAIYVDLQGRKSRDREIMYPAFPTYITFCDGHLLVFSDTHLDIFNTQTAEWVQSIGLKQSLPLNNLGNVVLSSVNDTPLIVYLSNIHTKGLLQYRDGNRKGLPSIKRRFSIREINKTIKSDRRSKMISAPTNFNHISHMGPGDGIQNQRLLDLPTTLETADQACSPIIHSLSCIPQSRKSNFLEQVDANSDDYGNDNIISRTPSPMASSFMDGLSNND
UniProt Q9V9S7: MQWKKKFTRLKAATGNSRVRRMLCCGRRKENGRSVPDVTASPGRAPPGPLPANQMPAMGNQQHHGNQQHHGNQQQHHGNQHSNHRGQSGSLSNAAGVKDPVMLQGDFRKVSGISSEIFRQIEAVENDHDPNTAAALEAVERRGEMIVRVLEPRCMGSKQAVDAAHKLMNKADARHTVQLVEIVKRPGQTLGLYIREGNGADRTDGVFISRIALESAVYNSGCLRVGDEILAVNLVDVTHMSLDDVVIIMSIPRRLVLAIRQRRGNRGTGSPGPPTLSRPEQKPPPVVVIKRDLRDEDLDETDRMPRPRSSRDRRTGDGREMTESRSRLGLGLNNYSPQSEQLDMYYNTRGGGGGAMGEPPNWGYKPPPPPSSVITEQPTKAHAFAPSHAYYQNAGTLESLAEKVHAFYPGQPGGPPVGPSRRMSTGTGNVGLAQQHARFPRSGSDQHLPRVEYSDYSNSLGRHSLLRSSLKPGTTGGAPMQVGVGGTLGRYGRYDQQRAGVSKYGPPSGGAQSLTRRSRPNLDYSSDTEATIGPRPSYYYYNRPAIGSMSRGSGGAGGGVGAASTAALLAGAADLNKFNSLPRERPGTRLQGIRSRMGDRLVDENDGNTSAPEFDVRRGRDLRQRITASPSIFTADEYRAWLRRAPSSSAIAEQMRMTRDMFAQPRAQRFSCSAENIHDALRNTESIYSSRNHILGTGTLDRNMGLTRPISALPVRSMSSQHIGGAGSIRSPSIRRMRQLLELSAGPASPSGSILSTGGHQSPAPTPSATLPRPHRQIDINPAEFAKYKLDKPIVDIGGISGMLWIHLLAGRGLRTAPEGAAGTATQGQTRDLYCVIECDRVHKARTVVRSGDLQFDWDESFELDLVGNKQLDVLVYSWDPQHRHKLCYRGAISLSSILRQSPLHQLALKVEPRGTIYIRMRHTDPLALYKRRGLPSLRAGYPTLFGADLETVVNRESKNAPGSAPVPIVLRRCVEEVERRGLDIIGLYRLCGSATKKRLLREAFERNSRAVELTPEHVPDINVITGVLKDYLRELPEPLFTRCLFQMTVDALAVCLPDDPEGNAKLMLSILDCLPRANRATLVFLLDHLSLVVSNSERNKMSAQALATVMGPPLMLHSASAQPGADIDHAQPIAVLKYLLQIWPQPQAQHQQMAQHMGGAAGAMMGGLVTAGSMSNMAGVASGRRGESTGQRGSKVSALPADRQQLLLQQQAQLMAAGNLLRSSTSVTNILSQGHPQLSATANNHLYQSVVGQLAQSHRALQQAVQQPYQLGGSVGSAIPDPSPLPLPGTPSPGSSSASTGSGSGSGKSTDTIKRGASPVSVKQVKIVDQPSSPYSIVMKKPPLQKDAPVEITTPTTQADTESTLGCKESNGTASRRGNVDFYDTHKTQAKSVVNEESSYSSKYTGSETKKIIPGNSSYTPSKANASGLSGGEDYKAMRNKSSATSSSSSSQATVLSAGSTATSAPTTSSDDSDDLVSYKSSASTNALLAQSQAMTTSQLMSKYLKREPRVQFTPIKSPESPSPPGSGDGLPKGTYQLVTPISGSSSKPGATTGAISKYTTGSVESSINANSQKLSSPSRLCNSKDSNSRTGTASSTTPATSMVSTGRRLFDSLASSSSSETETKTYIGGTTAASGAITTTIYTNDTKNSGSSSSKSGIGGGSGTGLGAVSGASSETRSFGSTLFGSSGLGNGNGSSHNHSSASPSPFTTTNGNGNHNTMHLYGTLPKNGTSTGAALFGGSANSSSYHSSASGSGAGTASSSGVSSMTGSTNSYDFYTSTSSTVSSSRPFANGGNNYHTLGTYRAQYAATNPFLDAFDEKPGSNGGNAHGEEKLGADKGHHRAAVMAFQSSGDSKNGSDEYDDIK

These are yes or no findings as the source states them, for the method shown. Binding seen in cells or lysates may run through a third protein. Some results given as binding are weak or reduced against the parent protein; the word gives no strength. For some of these results: Tags and fused reporters may be left off the sequences shown.

Assay [1] deals with T1, V5-tagged Ten-m-ΔECD (I256-A2731 deleted) (Drosophila melanogaster) (UniProt O61307).
T1 sequence: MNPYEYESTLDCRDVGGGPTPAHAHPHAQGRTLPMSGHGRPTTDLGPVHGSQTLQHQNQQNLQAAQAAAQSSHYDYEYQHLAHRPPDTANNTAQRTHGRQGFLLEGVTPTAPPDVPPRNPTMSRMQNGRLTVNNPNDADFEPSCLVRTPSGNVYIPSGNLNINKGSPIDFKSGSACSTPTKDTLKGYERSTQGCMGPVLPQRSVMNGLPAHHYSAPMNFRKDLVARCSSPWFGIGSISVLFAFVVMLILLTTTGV
Nature of the assay: co-IP; co-transfected S2 cells, 72 h; lysis in 50 mM Tris-HCl pH 7.5, 150 mM NaCl, 0.2% TritonX-100, 10% glycerol; mouse anti-V5 on Protein G Dynabeads overnight at 4°C; washes with 0.5% TritonX-100; blot with anti-FLAG.

Assay [2] concerns the target V5-tagged full-length Ten-m (tenascin-major, isoform B) (Drosophila melanogaster) (UniProt O61307). Described as above.

As to “FLAG-tagged Genghis Khan (Gek) (from UniProt Q9W1B0 1-1637)”, the binding entry in assay [1] and in assay [2] was “binds” throughout.
Turning to “FLAG-tagged full-length Syd1 (RhoGAP100F) (from UniProt Q9V9S7 1-1866)”, the binding result in assay [1] and in assay [2] was “binds” each time.
